Literature values in patent publication US20140243351A1, “DRUG FOR THE TREATMENT OF ALLERGIC RHINITIS COMPRISING PGD2 ANTAGONIST AND HISTAMINE ANTAGONIST” (Shionogi & Co., Ltd., priority 2011, published 2014).
Where two headings read alike, the source gives them in different places. For at least one compound, name, drawing or mass did not settle the structure.

Key:
[1] = tested on: seasonal allergic rhinitis patients; conditions: after two weeks, cited from earlier work
[2] = tested on: seasonal allergic rhinitis patients; conditions: after two weeks; montelukast 10 mg, loratadine 10 mg, combination 10 mg each; cited from earlier work
[3] = tested on: seasonal allergic rhinitis patients; conditions: after two weeks; cited from earlier work

CC(C)(O)c1ccccc1CC[C@@H](SCC1(CC(=O)O)CC1)c1cccc(/C=C/c2ccc3ccc(Cl)cc3n2)c1 [montelukast]
change in nasal symptom scores per symptom since the start of the administration [1]: 0.36 | change in nasal symptom scores per symptom from the placebo group ([1]; sneezing, nasal discharge, nasal congestion, nasal itching): 0.14 | change per symptom of the nasal symptom scores since the start of the administration [2]: 0.36 | change per symptom of the nasal symptom scores, based on the placebo group [2]: 0.11 | change per symptom of the nasal symptom scores since the start of the administration [3]: 0.39 | change per symptom of the nasal symptom scores, based on the placebo group [3]: 0.08
